Measurements reported in publication doi:10.1101/2024.11.16.623920.

Key:
[1] = target: CaGpi3 (C. albicans Gpi3, GPI-GnT subunit) (C. albicans (endogenous in BWP17-derived cells)); assay: co-IP
[2] = target: CaGpi8 (C. albicans Gpi8, subunit of the GPI-transamidase) (C. albicans (endogenous in the cells)); assay: FRET or BRET

B1: CaArv1-V5 (C. albicans Arv1 tagged with V5 at its C-terminus) (protein, UniProt Q5ANH2 1-296)
chain: MICIECGYSNIDCLYSKYKSDYIKLSVCPECNKIADKYIEYDSVILFLDILLLKRQAYKHLAYNLTEMEMEIGSSTNFHINDNTNFKFFHTYRKLMKLIFMILSFEVYLTWANEEKLLIHSQLINLIFNQSVVYQYLFFIIKSSLENLILNLSLQLILRLGYKWGQGPQKINGNIRDKELFGYKTSVLLVTTMVSGSIRLFPILMFIWPYDNISITKPLINLIAFINIVEALRVVTSLGYVELILSLAFSIVIRNIVSKSLLVLIVRLFLDFNFTEVYYNEMYQLYSQIQTYIRWI
[1]
  binding: binds
[2]
  binding: no binding (tested: r > 10 nm)

These are yes or no findings as the source states them, for the method shown. In cells and extracts the contact can be indirect. For some assays here: A result given as binding can be weak or reduced; the word gives no strength. Sequences can lack the tags named with a protein.
